# Measured values: PubChem BioAssay AID330 (DTP/NCI, 2004)
# The list does not hold the whole screen: it is rich in T/C values a quarter to a half above the control, in often repeated tests (any T/C) and in doses without a T/C. Further doses and runs are listed elsewhere. T/C: endpoint of the treated group in % of that of the vehicle group. Some doses have a count of surviving animals in place of a T/C: the source files T/C as zero there, which appears to mark a toxic dose or a test without result, not a measured value. Some doses without a T/C left all or most animals alive at the check, yet need not have been tolerated: survival well below the control is almost never listed, so the zero probably covers shortened survival too. Survivors were counted at the toxicity check, usually on the fifth day, unless a day is given; later deaths do not show. Schedule codes are those of the source, taken here to give the interval after Q, in days (D) or hours (H), and the number of doses after X. Some entries hold several experiments; their values stand side by side, smallest first. For survival time, this PubChem deposit counts one and a half times the control or more as active, and values a quarter to a half above the control carry no call in these data; other NCI protocols may use other cut-offs.
# System: P388 leukemia ip, CD2F1 mice, survival T/C
# Assay: NCI In Vivo Anticancer Drug Screen. Data for tumor model P388 Leukemia (intraperitoneal) in CD2F1 (CDF1) mice
# Conditions: T/C endpoint: median survival time, higher T/C = longer survival
# [1] = dose: 200.0 mg/kg/injection, schedule: Q01DX009 (ip), vehicle: saline
# [2] = dose: 50.0 mg/kg/injection, schedule: Q01DX009 (ip), vehicle: saline
# [3] = dose: 50.0 mg/kg/injection, schedule: Q01DX009 (ip), vehicle: saline with Tween-80
# [4] = dose: 100.0 mg/kg/injection, schedule: Q01DX009 (ip), vehicle: saline with Tween-80
# [5] = dose: 200.0 mg/kg/injection, schedule: Q01DX005 (ip), vehicle: Klucel (hydroxypropylcellulose) (HPC)
structure (smiles),measurement,setting,value
CC1=NN(c2cc(S(=O)(=O)O)ccc2Cl)C(=O)C1N=Nc1ccccc1 (stereo not drawn),survivor count,[1],3 of 6
CC[N](CC)[Ge]([CH2]C)[CH2]C.C[CH2][Ge]([CH2]C)[CH2]C,T/C,[2],133 % of control
same,survivor count,[2],0 of 6
same,survivor count,[1],0 of 6
O=C(O)c1ccc(N2N=C3C(=CC(=O)c4ccccc43)SCC2=O)cc1,survivor count,"dose: 50.0 mg/kg/injection, schedule: Q01DX005 (ip), vehicle: saline + Tween-80 + alcohol",1 of 6 and 2 of 5
same,survivor count,"dose: 100.0 mg/kg/injection, schedule: Q01DX005 (ip), vehicle: saline + Tween-80 + alcohol",0 of 6
same,survivor count,"dose: 200.0 mg/kg/injection, schedule: Q01DX005 (ip), vehicle: saline + Tween-80 + alcohol",0 of 6
Cn1cc(N=P(c2ccccc2)(c2ccccc2)c2ccccc2)c(=O)n(C)c1=O,survivor count,"dose: 120.0 mg/kg/injection, schedule: Q01DX005 (ip), vehicle: Klucel (hydroxypropylcellulose) (HPC)",1 of 6
same,survivor count,"dose: 240.0 mg/kg/injection, schedule: Q01DX005 (ip), vehicle: Klucel (hydroxypropylcellulose) (HPC)",1 of 6
CC[C@H](CC[C@@H](C)C1CC[C@H]2[C@@H]3CC=C4C[C@@H](OP(=O)(N5CC5)N5CC5)CC[C@]4(C)[C@H]3CC[C@]12C)C(C)C (stereo partly drawn),T/C,"dose: 25.0 mg/kg/injection, schedule: Q01DX009 (ip), vehicle: saline with Tween-80",126 % of control
same,T/C,[3],130 and 134 % of control
same,T/C,[4],149 % of control
CCOC(=O)/N=[N+](\[O-])c1ccc([N+](=O)[O-])cc1,survivor count,"dose: 200.0 mg/kg/injection, schedule: Q01DX001 (ip), vehicle: Klucel (hydroxypropylcellulose) (HPC)",2 of 6
same,survivor count,"dose: 400.0 mg/kg/injection, schedule: Q01DX001 (ip), vehicle: Klucel (hydroxypropylcellulose) (HPC)",0 of 6
O=c1c2ccccc2[nH]c2c1[nH]c1ccccc12,survivor count,[5],3 of 6
O=c1c2ccccc2nc(-c2ccccc2Cl)n1-c1nnc(C(F)(F)F)s1,survivor count,[3],0 of 6
same,survivor count,[4],0 of 6
same,survivor count,"dose: 200.0 mg/kg/injection, schedule: Q01DX009 (ip), vehicle: saline with Tween-80",0 of 6
C/C(=N\NC1=NCCN1)c1cn(C2=NCCN2)nc1C,survivor count,"dose: 120.0 mg/kg/injection, schedule: Q01DX005 (ip), vehicle: saline",0 of 6
same,survivor count,"dose: 240.0 mg/kg/injection, schedule: Q01DX005 (ip), vehicle: saline",0 of 6
NC(=S)c1ccc(Br)cc1,survivor count,"dose: 200.0 mg/kg/injection, schedule: Q01DX009 (ip), vehicle: Klucel (hydroxypropylcellulose) (HPC)",5 of 6
CCN(CC)CCNC(=O)C(O)C1CCCCC1 (stereo not drawn),survivor count,"dose: 240.0 mg/kg/injection, schedule: Q01DX005 (ip), vehicle: saline with Tween-80",2 of 6
CSc1c2c(c(C)c3c1[nH]c1ccccc13)C=NCC2,survivor count,"dose: 200.0 mg/kg/injection, schedule: Q04DX002 (ip), vehicle: distilled water + Tween-80",5 of 5
C=C1C(=O)OC2/C=C(\C=O)C3OC3C3OC3(C)CC(OC(=O)/C(=C/C)CO)C12 (stereo not drawn),survivor count,"dose: 25.0 mg/kg/injection, schedule: Q01DX005 (ip), vehicle: Klucel (hydroxypropylcellulose) (HPC)",2 of 6
same,survivor count,"dose: 50.0 mg/kg/injection, schedule: Q01DX005 (ip), vehicle: Klucel (hydroxypropylcellulose) (HPC)",0 of 6
same,survivor count,"dose: 100.0 mg/kg/injection, schedule: Q01DX005 (ip), vehicle: Klucel (hydroxypropylcellulose) (HPC)",0 of 6
same,survivor count,[5],0 of 6
CSC(=S)C(CNc1ncccn1)c1ccccc1 (stereo not drawn),survivor count,"dose: 240.0 mg/kg/injection, schedule: Q01DX005 (ip), vehicle: Klucel + Tween-80",6 of 6
